Earlier results as cited in US7130746B2, “Computer systems and computer programs for determining protein activity levels using gene expression profiles” (priority 1998, dated 2006).
At least one structure is not confirmed: it was looked up by name or label, or the drawing left a doubt.

Tested on: Tet promoter
Conditions: Tet promoter system in yeast (Gari et al., 1997); cited from earlier work

## C[C@H]1c2cccc(O)c2C(=O)C2=C(O)[C@]3(O)C(=O)C(C(N)=O)=C(O)[C@@H](N(C)C)[C@@H]3[C@@H](O)[C@@H]21 [doxycycline]
  level giving maximal repression of promoter activity: 10 micrograms/ml
